Screen size: about 330,000 compounds; about 610 (0.18%) were called active. The inconclusive results got no clear call from the source; some entries with a clear call stand among them for comparison. Calls come from the whole dose curve. Potencies beside an inconclusive call are fits to weak or partial responses and may not hold up.
assay: qHTS of Yeast-based Assay for SARS-CoV PLP; note: nearly all actives have a fitted effect of over 55% in size; for activity, positive = growth rescue: 0% is about no effect; conditions: S. cerevisiae expressing SARS-CoV PLpro; Potency: growth rescue; activity, positive = growth rescue: at 32.9 µM (top of the series)
Potency is the fitted concentration of half-maximal effect.

| SMILES | Potency | activity, positive = growth rescue |
| --- | --- | --- |
| Cc1ccc(C(C(=O)NC2CCCC2)N(Cc2ccco2)C(=O)CCC(=O)Nc2cc(C)on2)cc1 (stereo not given) | inconclusive: 12.6 µM [activator, single point] |  |
| C=CCc1ccccc1OCC(O)CN1CCN(c2ccc(OC)cc2)CC1 (stereo not given) | inconclusive: 3.16 µM [activator, single point] |  |
| c1ccc(CSc2ccc(-c3ccccn3)nn2)cc1 | inconclusive: 3.16 µM [activator, single point] |  |
| CCN(CC)S(=O)(=O)c1cccc(C(=O)N/N=C/c2ccc(OC)c(O)c2)c1 | inconclusive: 22.4 µM [activator, partial curve] |  |
| Cn1c(=O)[nH]c(=O)c2c1nc(CN1CCN(c3cccc(Cl)c3)CC1)n2CCc1ccccc1 |  | inactive: -2.51% |
| Clc1ccc(OCCn2ccnc2)c(Cl)c1 | inconclusive: 20 µM [activator, single point] |  |
| C=CCn1c(SCC#N)nc2sc(CC)cc2c1=O |  | inactive: -2.35% |
| O=C(COC(=O)c1ccccc1NS(=O)(=O)c1ccc(Cl)cc1)NCc1ccccc1 | inconclusive: 3.16 µM [activator, single point] |  |
| O=C(C1=C[C@H](C2CC2)C[C@H](OCCCCO)O1)N1CCN(Cc2ccccc2)CC1 |  | inactive: -1.11% |
| COc1cnc(-c2ccccn2)nc1N(C)c1ccccc1 |  | inactive: -8.05% |
| Cc1ccc2nsnc2c1NC(=O)c1ccccc1[N+](=O)[O-] | inconclusive: 2.24 µM [activator, partial curve] |  |
| Cc1c(C(=O)Oc2ccc(F)cc2)sc2ncn(Cc3cccc(F)c3)c(=O)c12 | inconclusive: 3.98 µM [activator, single point] |  |
| COc1ccc(OCC(=O)Sc2ccc(C)cc2)cc1 | active: 2.82 µM |  |
| CN1CCN(Cc2cc(Cl)c3cccnc3c2OC(=O)c2cccs2)CC1 | active: 11.2 µM |  |
| O=C(CCNS(=O)(=O)c1cccs1)Nc1ccccc1F | inconclusive: 3.16 µM [activator, single point] |  |
| COc1ccc(C(=O)Nc2ccccc2C(=O)Nc2cccc(C)n2)cc1 |  | inactive: -2.52% |
| CC(C)COC(=O)c1ccc(N2C(=O)c3ccccc3C2=O)cc1 |  | inactive: -1.45% |
| COc1ccccc1NC(=O)CSc1nnnn1C1CCCCC1 |  | inactive: 0.106% |
| CCc1nc(C#N)c(N2CCOCC2)o1 | inconclusive: 8.91 µM [activator, partial curve] |  |
| CC(C)(C)C(=O)NC(=S)Nc1ccccc1F | inconclusive: 11.2 µM [activator, single point] |  |
| N#C/C(=C\c1cccc(O)c1)C(=O)Nc1ccc2c(c1)OCCO2 |  | inactive: -2.91% |
| CCOc1ccc(N(C(C)C(=O)N2CCCCCC2)S(C)(=O)=O)cc1 (stereo not given) | inconclusive: 3.98 µM [activator, single point] |  |
| O=C(Nc1cccc(Cl)c1Cl)c1cc(S(=O)(=O)NCCc2ccccc2)ccc1F | inconclusive: 12.6 µM [activator, partial curve] |  |
| CCN(CC)C(=O)CSc1nnc(-c2ccccc2)n1-c1ccccc1 | inconclusive: 3.55 µM [activator, single point] |  |
| CC(C)c1ccc(N(C(=O)c2snc(C(N)=O)c2N)C(C(=O)NCC2CCCO2)c2ccc(N(C)C)cc2)cc1 (stereo not given) | inconclusive: 17.8 µM [activator, partial curve, poor fit] |  |

| SMILES | Potency | activity, positive = growth rescue |
| --- | --- | --- |
| CCCCn1c(N)c(N(CCOC)C(=O)COC(=O)/C=C/c2ccc(Br)cc2)c(=O)[nH]c1=O | inconclusive: 20 µM [activator, single point] |  |
| COc1ccc(OC)c(S(=O)(=O)N2CCC(C(=O)NCCC3=CCCCC3)CC2)c1 |  | inactive: -26.5% |
| CCN(CC(=O)NCc1cccs1)C(=O)Cc1ccc(C)c(C)c1 | inconclusive: 15.8 µM [activator, single point] |  |
| COc1ccc(CC(NC(C)=O)C(=O)NC2CCN(C(=O)Nc3ccc(C#N)cc3)CC2)cc1OC (stereo not given) | inconclusive: 22.4 µM [activator, single point] |  |
| Cc1cc(C)n(C(=O)CNC(=O)c2cccc(Br)c2)n1 |  | inactive: -11.2% |
| COc1ccc(C(=O)NC(=S)Nc2nc(-c3ccc(OC)c(Br)c3)cs2)cc1Br | inconclusive: 12.6 µM [activator, single point] |  |
| CCc1cc2c(NCCC(=O)O)nc(C)nc2s1 | inconclusive: 3.55 µM [activator, single point] |  |
| COc1ccc(Cc2nnc(NC(=O)CSc3ccccc3)s2)cc1OC | inconclusive: 2.51 µM [activator, partial curve] |  |
| c1ccc2c(c1)nc1n2CC2CON(C3CCCCC3)C12 (stereo not given) |  | inactive: 0.0662% |
| O=C(Nc1ccc(Cl)c(Cl)c1)c1cccnc1 |  | inactive: -7.56% |
| COc1ccc(C/C(C)=N/NC(=S)Nc2ccccc2)cc1 | active: 11.2 µM |  |
| Cc1ccc(Sc2c(C(=O)Nc3ccc(F)cc3F)c(C(F)(F)F)nn2C)cc1 |  | inactive: -2.51% |
| O=C(O)C1CCN(C(=O)c2ccc3c(c2)OCO3)CC1 | inconclusive: 20 µM [activator, single point] |  |
| C/C(=N\N1CCN(c2ccccc2)CC1)c1ccc(O)cc1 |  | inactive: -1.67% |
| O=C(Nc1cc(Cl)ccc1Cl)C1CC(=O)N(c2ccc(Br)cc2)C1 (stereo not given) |  | inactive: -7.3% |
| COC(=O)C1=NNC2C(=O)N(C3CCCCC3)C(=O)C12 (stereo not given) |  | inactive: 1.64% |
| O=S(=O)(Nc1ccc(N=Nc2ccccc2)cc1)c1ccccc1 |  | inactive: -11.8% |
| Cc1ccc(NC(=O)COC(=O)C(NS(=O)(=O)c2ccc(Cl)cc2)C(C)O)c(Br)c1 (stereo not given) | inconclusive: 11.2 µM [activator, partial curve] |  |
| Cc1ccc(C(=O)NCCCn2ccnc2)o1 | inconclusive: 3.16 µM [activator, single point] |  |
| CNC(=S)/N=C/NOCc1ccc(Cl)cc1Cl |  | inactive: -15.8% |
| O=C(C[n+]1ccncc1)c1ccccc1 | inconclusive: 17.8 µM [activator, single point] |  |
| O=C(/C=C1\NC2(CCCC2)Cc2ccccc21)C(=O)N/N=C/c1ccccc1O | active: 7.94 µM |  |
| CCCC1Cc2c(sc(N)c2C#N)CO1 (stereo not given) |  | inactive: 0.245% |
| CCOC(=O)c1ccc(NC(=O)c2ccco2)cc1 |  | inactive: -12.7% |
| C=CCn1c(SCC(=O)Nc2cc(C)on2)nc2c([nH]c3ccccc32)c1=O | inconclusive: 17.8 µM [activator, single point] |  |

Exported tab-delimited: part of the list above
SMILES	Potency	activity, positive = growth rescue
C/C(=N\N1CCN(c2ccccc2)CC1)c1ccc(O)cc1		inactive: -1.67%
O=C(Nc1cc(Cl)ccc1Cl)C1CC(=O)N(c2ccc(Br)cc2)C1 (stereo not given)		inactive: -7.3%

Reference: PubChem BioAssay AID485353 (National Center for Advancing Translational Sciences (NCATS), 2010)
